For at least one compound, name, drawing or mass did not settle the structure.
Test system: BLA^TVMV-BLIP-FRB / FKBP12-TVMV biosensor (rapamycin-binding proteins FRB and FKBP12)
Test: β lactamase activity of the two-component biosensor in response to rapamycin (nitrocefin hydrolysis)
Format: biochemical
Conditions: BLA-BLIP-FRB 5 nM or 1 nM; FKBP12-TVMV 10 nM; nitrocefin 25 μM; rapamycin 0.025 nM-50 nM; absorbance at A620

## CO[C@H]1C[C@@H]2CC[C@@H](C)[C@@](O)(O2)C(=O)C(=O)N2CCCC[C@H]2C(=O)O[C@H]([C@H](C)C[C@@H]2CC[C@@H](O)[C@H](OC)C2)CC(=O)[C@H](C)/C=C(\C)[C@@H](O)[C@@H](OC)C(=O)[C@H](C)C[C@H](C)/C=C/C=C/C=C/1C [rapamycin]
  detection of rapamycin by the biosensor, as measured by the hydrolysis of nitrocefin: dose-dependent detection

Reference: patent US20170315114A1 (THE UNIVERSITY OF QUEENSLAND, priority 2014, published 2017)
